Measured values: article PMC6451765 (Journal of biomolecular structure & dynamics, 2013)

Protein sequences, listed by entry. Tags and fused reporters are not part of them.
UniProt P41595, whole entry: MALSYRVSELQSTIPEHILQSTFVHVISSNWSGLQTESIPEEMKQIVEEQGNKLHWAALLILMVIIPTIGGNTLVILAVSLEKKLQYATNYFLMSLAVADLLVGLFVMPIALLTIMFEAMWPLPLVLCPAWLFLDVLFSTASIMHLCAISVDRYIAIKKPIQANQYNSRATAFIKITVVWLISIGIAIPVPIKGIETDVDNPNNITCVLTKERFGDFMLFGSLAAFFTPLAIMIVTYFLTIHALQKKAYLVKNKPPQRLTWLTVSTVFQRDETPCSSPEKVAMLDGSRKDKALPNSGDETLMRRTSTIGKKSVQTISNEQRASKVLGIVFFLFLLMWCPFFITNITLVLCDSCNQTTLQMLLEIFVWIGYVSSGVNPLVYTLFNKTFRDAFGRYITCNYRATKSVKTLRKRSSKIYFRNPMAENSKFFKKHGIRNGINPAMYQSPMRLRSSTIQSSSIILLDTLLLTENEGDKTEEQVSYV

Biological target: 5-HT2B (Homo sapiens, UniProt P41595)
Assay type: binding

With `CC[C@@H](CO)NC(=O)[C@@H]1C=C2c3cccc4c3c(cn4C)C[C@H]2N(C)C1` [M, methysergide, reference compound] the Ki was 0.019 µM.
